Source: article doi:10.1101/258194 (bioRxiv, 2018)
Results are given in words; binding and its absence hold for the method and conditions named. Some entries that bind do so weakly or less than the wild type. Sequences can lack the tags named with a protein.

Molecular target: T1, Zip2 C-terminal region (residues 499-704), yeast two-hybrid fusion (S. cerevisiae) (UniProt P53061)
T1 sequence: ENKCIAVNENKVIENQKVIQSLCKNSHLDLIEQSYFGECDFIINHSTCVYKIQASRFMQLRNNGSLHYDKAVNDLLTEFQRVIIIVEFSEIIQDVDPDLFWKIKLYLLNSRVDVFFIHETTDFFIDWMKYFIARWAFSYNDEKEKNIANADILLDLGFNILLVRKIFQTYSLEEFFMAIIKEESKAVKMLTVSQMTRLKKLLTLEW
Experiment: two-hybrid

binding: binds
B1: Spo16, yeast two-hybrid fusion (protein, UniProt P17122 1-198)
chain: MSEFFWDVQKIQEISNVEEHSVVKCVTVNTSRLISQLNEELQDEESGVNFIVTQLQLLINNVYEKIQKSPGVPAHRSLMINLNFTRLKFSIAYWDILLERSLDLINGPSKTGARYFITEVTPVDRSRYVENNQYFLAFKANQRLTRNSVDMDEFIDFEILIKQIIFDLFKKNGIPDQDFEAILSRFHNLESLVVAFNE
